Measurements taken from PMC3171153.
These are yes or no findings as the source states them, for the method shown. Binding seen in cells or lysates may run through a third protein. Here binding means that the protein was enriched with, or labelled near, the bait; the list need not be complete.

Molecular target: T1, endogenous SHC1 of EGF-stimulated Rat2 fibroblasts (rat (endogenous in Rat2 fibroblasts)) (UniProt Q5M824)
T1 sequence (chain, pSer29 and pTyr313 detected by MS): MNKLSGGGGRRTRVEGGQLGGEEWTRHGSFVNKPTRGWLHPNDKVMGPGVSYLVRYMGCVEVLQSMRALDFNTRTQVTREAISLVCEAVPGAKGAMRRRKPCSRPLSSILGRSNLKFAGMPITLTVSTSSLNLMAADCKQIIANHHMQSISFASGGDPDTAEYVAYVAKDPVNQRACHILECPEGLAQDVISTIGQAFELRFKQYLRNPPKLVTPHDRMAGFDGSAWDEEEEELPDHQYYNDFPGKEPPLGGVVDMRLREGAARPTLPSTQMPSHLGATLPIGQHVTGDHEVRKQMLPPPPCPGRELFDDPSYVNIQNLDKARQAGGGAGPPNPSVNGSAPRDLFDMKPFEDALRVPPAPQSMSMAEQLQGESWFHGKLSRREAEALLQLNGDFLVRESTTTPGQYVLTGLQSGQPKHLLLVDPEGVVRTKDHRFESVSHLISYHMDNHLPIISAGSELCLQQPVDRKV
Assay: affinity purification with mass spectrometry; endogenous SHC1 captured with scFv 72_1A10 on FLAG-M2 agarose from lysate of Rat2 fibroblasts stimulated with EGF (100 ng/ml, 3 min); partners detected by MRM-based LC-MS with MS/MS validation

| Substance | binding |
| --- | --- |
| GAB1 (rat (endogenous in Rat2 fibroblasts)) | binds |
| SOS1 (rat (endogenous in Rat2 fibroblasts)) | binds |
| PTPN11 (from UniProt P41499 1-593) (enzyme) | binds |
| PTPN12 (rat (endogenous in Rat2 fibroblasts)) (enzyme) | binds |
